Test results taken from patent US20170121382A1.
No constants are given. Whether binding was seen depends on the method and setting. For some of these results: Binding seen in cells or lysates may run through a third protein. Some entries that bind do so weakly or less than the wild type.

Sequences of proteins named here, by UniProt entry; tags and fusion partners are left off. Residues count along the entry.
UniProt P70669: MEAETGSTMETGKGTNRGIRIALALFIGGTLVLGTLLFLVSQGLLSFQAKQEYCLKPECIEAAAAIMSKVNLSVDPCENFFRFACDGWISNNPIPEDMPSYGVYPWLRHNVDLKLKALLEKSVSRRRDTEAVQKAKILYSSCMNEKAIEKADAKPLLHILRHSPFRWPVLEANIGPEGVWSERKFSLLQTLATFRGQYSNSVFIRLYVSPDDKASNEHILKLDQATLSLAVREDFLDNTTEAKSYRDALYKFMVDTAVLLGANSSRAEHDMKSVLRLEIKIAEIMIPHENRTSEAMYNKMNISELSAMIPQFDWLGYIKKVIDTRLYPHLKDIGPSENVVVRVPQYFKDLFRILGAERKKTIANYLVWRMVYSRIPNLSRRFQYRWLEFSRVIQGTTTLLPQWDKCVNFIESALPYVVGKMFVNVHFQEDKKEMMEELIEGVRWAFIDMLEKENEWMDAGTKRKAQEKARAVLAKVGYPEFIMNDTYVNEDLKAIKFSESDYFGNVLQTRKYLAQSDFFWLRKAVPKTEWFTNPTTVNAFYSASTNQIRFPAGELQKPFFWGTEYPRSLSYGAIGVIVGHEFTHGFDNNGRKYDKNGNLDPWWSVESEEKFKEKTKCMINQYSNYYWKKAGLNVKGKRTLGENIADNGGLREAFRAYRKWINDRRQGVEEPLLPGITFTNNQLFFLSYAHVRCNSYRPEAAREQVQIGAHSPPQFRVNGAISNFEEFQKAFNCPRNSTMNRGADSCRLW
UniProt P78562, residues 46-749: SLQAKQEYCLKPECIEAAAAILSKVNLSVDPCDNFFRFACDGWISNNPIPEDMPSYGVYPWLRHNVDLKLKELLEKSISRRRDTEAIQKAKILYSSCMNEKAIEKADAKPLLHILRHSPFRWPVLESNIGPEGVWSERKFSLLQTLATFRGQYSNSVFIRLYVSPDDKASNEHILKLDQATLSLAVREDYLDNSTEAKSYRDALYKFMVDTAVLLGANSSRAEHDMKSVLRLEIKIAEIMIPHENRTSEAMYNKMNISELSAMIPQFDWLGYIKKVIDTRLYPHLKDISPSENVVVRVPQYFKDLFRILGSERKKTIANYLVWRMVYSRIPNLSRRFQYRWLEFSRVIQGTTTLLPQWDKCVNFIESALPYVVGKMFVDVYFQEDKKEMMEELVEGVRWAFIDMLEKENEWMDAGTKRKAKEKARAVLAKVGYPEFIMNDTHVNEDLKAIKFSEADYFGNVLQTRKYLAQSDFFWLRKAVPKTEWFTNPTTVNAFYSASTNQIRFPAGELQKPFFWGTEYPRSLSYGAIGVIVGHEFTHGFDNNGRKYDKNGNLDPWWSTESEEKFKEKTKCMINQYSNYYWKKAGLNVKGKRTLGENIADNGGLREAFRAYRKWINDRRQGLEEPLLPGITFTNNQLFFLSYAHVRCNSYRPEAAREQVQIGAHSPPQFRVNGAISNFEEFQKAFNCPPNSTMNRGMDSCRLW

Legend:
[1] = target: T1, cDMP1, cleaved 57 kDa C-terminal fragment of DMP1 (mouse bone extracts) (mouse) (UniProt O55188); assay: coIP, anti-PHEX antibody-coated beads, mouse bone extracts, Western blot for DMP1
T1 sequence (highly phosphorylated (as printed, sites not given), looked up): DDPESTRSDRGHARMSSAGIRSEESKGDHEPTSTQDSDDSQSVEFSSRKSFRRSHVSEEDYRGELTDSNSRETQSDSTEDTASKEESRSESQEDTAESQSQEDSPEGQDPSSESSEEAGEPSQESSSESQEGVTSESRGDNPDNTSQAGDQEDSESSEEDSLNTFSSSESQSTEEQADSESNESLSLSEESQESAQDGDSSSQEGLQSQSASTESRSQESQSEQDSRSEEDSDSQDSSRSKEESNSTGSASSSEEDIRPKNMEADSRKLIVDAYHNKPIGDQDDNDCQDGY

[2] = target: T1, cDMP1, cleaved 57 kDa C-terminal fragment of DMP1 (mouse bone extracts) (mouse); assay: coIP, anti-PHEX antibody-coated magnetic beads, WT and DMP1ko/cDMP1Tg mouse bone extracts, Western blot with Ab to the C-terminus region of DMP1
[3] = target: T2, human recombinant DMP1 (human) (UniProt Q13316); assay: SPR, human recombinant PHEX and DMP1
T2 sequence (looked up): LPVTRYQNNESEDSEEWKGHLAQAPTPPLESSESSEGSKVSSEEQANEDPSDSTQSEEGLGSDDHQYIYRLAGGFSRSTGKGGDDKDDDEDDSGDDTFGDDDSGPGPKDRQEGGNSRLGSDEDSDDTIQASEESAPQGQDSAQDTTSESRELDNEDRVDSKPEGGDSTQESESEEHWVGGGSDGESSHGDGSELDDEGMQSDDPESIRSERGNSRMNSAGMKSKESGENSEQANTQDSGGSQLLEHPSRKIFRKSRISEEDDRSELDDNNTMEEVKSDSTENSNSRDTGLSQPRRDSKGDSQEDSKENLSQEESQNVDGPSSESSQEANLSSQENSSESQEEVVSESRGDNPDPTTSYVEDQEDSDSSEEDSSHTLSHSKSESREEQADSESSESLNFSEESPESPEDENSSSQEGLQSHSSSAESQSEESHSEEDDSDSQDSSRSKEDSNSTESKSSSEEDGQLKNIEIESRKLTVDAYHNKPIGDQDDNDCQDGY

[4] = target: T2, human recombinant DMP1 (human); assay: SPR, DMP1 attached to the sensor, PHEX flowed over

Row | Substance | binding [1] | binding [2] | binding [3] | binding [4]
1 | PHEX (phosphate-regulating gene with homology to endopeptidase on the X chromosome), endogenous mouse protein (from UniProt P70669 1-749) (enzyme) | binds | binds | – | –
2 | soluble human recombinant PHEX (from UniProt P78562 46-749) (enzyme) | – | – | binds | binds
